Results published in publication PMC5387032 (Photosynthesis Research, 2017).

Chains of the proteins cited; added tags and fusions are not shown.
UniProt P22358: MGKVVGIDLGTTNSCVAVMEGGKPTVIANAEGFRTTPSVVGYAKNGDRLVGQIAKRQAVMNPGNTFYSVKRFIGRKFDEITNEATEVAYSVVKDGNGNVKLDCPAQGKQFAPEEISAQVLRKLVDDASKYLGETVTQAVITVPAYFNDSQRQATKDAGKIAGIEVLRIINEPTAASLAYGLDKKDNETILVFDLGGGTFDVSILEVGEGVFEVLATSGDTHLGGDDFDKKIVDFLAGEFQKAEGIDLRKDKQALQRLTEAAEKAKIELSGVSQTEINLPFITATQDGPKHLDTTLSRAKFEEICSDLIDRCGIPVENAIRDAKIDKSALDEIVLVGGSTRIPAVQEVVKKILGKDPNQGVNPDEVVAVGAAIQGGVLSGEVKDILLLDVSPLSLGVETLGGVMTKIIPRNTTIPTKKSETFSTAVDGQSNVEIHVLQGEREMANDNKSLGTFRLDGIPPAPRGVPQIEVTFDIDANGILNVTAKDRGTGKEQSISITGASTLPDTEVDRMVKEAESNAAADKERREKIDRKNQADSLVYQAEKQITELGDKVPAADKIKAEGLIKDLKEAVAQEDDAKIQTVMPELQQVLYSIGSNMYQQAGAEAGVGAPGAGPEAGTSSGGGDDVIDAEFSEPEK

Target: T1, N-terminally Strep-tagged RAF1 from Synechocystis sp. PCC 6803 (Synechocystis sp. PCC 6803) (UniProt Q55875)
T1 sequence: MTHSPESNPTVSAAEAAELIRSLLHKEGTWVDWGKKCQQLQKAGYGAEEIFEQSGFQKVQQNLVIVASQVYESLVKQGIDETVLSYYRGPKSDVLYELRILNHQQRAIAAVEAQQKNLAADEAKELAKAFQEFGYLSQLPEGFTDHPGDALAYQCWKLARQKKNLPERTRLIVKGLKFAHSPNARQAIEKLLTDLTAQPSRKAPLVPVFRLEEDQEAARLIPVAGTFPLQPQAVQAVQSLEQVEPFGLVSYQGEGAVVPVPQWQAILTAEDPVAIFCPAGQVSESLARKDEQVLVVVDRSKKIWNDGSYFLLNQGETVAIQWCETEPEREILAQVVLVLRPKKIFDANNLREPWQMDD
Assay: affinity purification with mass spectrometry; 20 µg of N- or C-terminally Strep-tagged RAF1 added to wild-type Synechocystis crude extract (1 mg protein), 5 min RT, then Strep-Tactin Superflow Plus resin 15 min RT; washed with 20 mM Tris pH 8.0, 150 mM NaCl; eluted with 2.5 mM d-desthiobiotin; silver-stained SDS-PAGE bands identified by mass spectrometry; only the target purified

| Substance | binding |
| --- | --- |
| DnaK2, endogenous in Synechocystis sp. PCC 6803 (from UniProt P22358 1-636) | binds |
| Cpn60, endogenous in Synechocystis sp. PCC 6803 | binds |

No constants are given. Whether binding was seen depends on the method and setting. Binding seen in cells or lysates may run through a third protein. These calls come from enrichment with a bait or labelling near it, and not all partners need be listed. Sequences can lack the tags named with a protein.
